Source: paper PMC8016481, “Tachykinin signaling inhibits task-specific behavioral responsiveness in honeybee workers” (eLife, 2021)

Experiments:
[1] = Label-free quantitative brain neuropeptidomics, Apis cerana cerana (LC-MS/MS); details: ACC
[2] = Label-free quantitative brain neuropeptidomics, comparison between Apis cerana cerana and Apis mellifera ligustica
[3] = NFs relative to base group NBs (= 1.00)
[4] = NFs relative to base group PFs (= 1.00)
[5] = PFs relative to base group NBs (= 1.00)
[6] = nurse bees, AML-NBs relative to base group ACC-NBs (= 1.00)
[7] = nectar foragers, AML-NFs relative to base group ACC-NFs (= 1.00)
[8] = pollen foragers, AML-PFs relative to base group ACC-PFs (= 1.00)

Substance | Group Profile (Ratio) [1, 3] | Group Profile (Ratio) [1, 4] | Group Profile (Ratio) [1, 5] | other results
ALMGFQGVRG | 1.00 :5.86 | 1.00 : 3.14 | 1.00 : 1.87 | Group Profile (Ratio) [2, 6]: 1.00 : 0.43
ALMGFQGVRa | 1.00 : 11.76 | 1.00 : 2.54 | 1.00 : 4.64 | Group Profile (Ratio) [2, 7]: 1.00 : 0.37; Group Profile (Ratio) [2, 6]: 1.00 : 0.43; Group Profile (Ratio) [2, 8]: 1.00 : 0.36
APMGFQGMRG | 1.00 :8.68 | 1.00 : 1.87 | 1.00 : 4.64 | Group Profile (Ratio) [2, 6]: 1.00 : 0.36
APMGFQGMRa | 1.00 :10.86 | 1.00 : 2.18 | 1.00 : 5.01 | Group Profile (Ratio) [2, 7]: 1.00 : 0.34; Group Profile (Ratio) [2, 6]: 1.00 : 0.4; Group Profile (Ratio) [2, 8]: 1.00 : 0.29
APMGFYGTRG | 1.00 :6.48 | – | 1.00 : 4.96 | –
APVGYQEMQGKKNSASLNSENFGIF | 1.00 :4.14 | – | 1.00 : 4.07 | –
ARMGFHGMRG | 1.00 :3.98 | – | 1.00 : 3.06 | –
ASFDDEYY | 1.00 :6.95 | – | 1.00 : 5.33 | Group Profile (Ratio) [2, 8]: 1.00 : 0.14
AVHYSGGQPLGSKRPNDMLSQRYHFGLa | – | 1.00 : 0.64 | – | –
AYRKPPFNGSIFa | 1.00 :0.19 | – | 1.00 : 0.29 | –
AYTYVSEYKRLPVYNFGIa | – | – | – | Group Profile (Ratio) [2, 6]: 1.00 : 0.34
DLSRFYGHF | – | – | – | Group Profile (Ratio) [2, 6]: 1.00 : 0.23
GLDLGLSRGFSGSQAA | – | – | – | Group Profile (Ratio) [2, 6]: 1.00 : 2.84
GLDLGLSRGFSGSQAAKHLMa | 1.00 :5.45 | – | 1.00 : 4.18 | Group Profile (Ratio) [2, 6]: 1.00 : 1.82
GMWFGPRLa | – | – | – | Group Profile (Ratio) [2, 6]: 1.00 : 2.08; Group Profile (Ratio) [2, 8]: 1.00 : 2.32
GRNDLNFIRYa | – | – | – | Group Profile (Ratio) [2, 8]: 1.00 : 0.31
IDLSRFYGHF | – | – | – | Group Profile (Ratio) [2, 6]: 1.00 : 3.59; Group Profile (Ratio) [2, 8]: 1.00 : 1.6
IDLSRFYGHFN | – | 1.00 : 2.1 | – | –
IDLSRFYGHFNT | 1.00 :6.65 | 1.00 : 2.04 | 1.00 : 3.26 | Group Profile (Ratio) [2, 7]: 1.00 : 0.55
ITGQGNRIF | – | – | 1.00 : 2.89 | –
KPPFNGSIFa | 1.00 :0.36 | – | 1.00 : 0.48 | Group Profile (Ratio) [2, 6]: 1.00 : 2.12
LPTNLGEDTKKTEQTMRPKS | – | – | 1.00 : 0.29 | –
LRNQLDIGDLQ | – | – | – | Group Profile (Ratio) [2, 8]: 1.00 : 2.16
LTNYLATGHRTNGGPVI | 1.00 :5.13 | – | – | –
LVDHRIPDLENEMFDSGNDPGSTVVRT | – | – | – | Group Profile (Ratio) [2, 7]: 1.00 : 3.25
MVPVPVHHMADELLRSGPDTVI | – | 1.00 : 1.87 | – | –
NIASLIRDYDQSRENRVSFPa | – | 1.00 : 2.05 | – | –
NLDEIDRVGWSGFV | 1.00 :3.91 | – | 1.00 : 2.81 | –

Substance | Group Profile (Ratio) [1, 3] | Group Profile (Ratio) [1, 4] | Group Profile (Ratio) [1, 5] | other results
NSELINSLLGLPKNMNNAa | 1.00 :4.04 | – | 1.00 : 3.43 | Group Profile (Ratio) [2, 7]: 1.00 : 0.18
NVASLARTYTLPQNAa | – | – | – | Group Profile (Ratio) [2, 7]: 1.00 : 1.71
NVGSVAREHGLPYa | 1.00 :4.13 | – | 1.00 : 3.59 | Group Profile (Ratio) [2, 8]: 1.00 : 2.87
NVGTLARDFALPPa | – | – | 1.00 : 2.62 | –
NVPIYQEPRF | 1.00 :0.32 | – | 1.00 : 0.39 | –
RVPWTPSPRLa | – | – | – | Group Profile (Ratio) [2, 8]: 1.00 : 3.43
SDPHLSIGILSKPISAIPSSKFDD | – | – | 1.00 : 0.4 | –
SISSLARTGDLPVREQ | 1.00 :2.92 | 1.00 : 0.11 | 1.00 : 3.96 | –
SLKAPFA | 1.00 :2.96 | – | 1.00 : 2.48 | –
SPFRYLGV | – | – | 1.00 : 2.74 | –
SPSLRLRFa | 1.00 :0.15 | 1.00 : 0.38 | – | Group Profile (Ratio) [2, 7]: 1.00 : 2.08
SQAYDPYSNAAQFQLSSQSRGYPYQHRL | – | – | – | Group Profile (Ratio) [2, 6]: 1.00 : 2.75
SQRSPSLRLRFa | – | 1.00 : 0.27 | – | –
SVSSLAKNSAWPVSL | – | – | – | Group Profile (Ratio) [2, 7]: 1.00 : 1.84
TSQDITSGMWFGPRLa | 1.00 :2.84 | – | – | Group Profile (Ratio) [2, 7]: 1.00 : 4.16
TWKSPDIVIRFa | – | 1.00 : 1.9 | – | –
VPIYQEPRF | 1.00 :0.34 | – | 1.00 : 0.23 | –
WIDTNDNKRGRDYSFGLa | – | 1.00 : 0.6 | – | –
YRKPPFNGSIFa | – | – | – | Group Profile (Ratio) [2, 6]: 1.00 : 2.65
YVASLARTGDLPIRGQ | – | 1.00 : 0.5 | – | –
YVASLARTGDLPIRa | 1.00 :4.91 | – | – | Group Profile (Ratio) [2, 8]: 1.00 : 1.96
pQDVDHVFLRFa | – | – | – | Group Profile (Ratio) [2, 6]: 1.00 : 1.91
pQITQFTPRLa | – | 1.00 : 0.27 | 1.00 : 5.9 | Group Profile (Ratio) [2, 7]: 1.00 : 1.92
pQLHNIIDKPRQNFNDP | – | 1.00 : 0.34 | – | –
pQLHNIIDKPRQNFNDPRF | – | 1.00 : 0.25 | – | –
pQMFTYSHGWTNa | 1.00 :4.77 | – | 1.00 : 3.87 | –
pQQFDDYGHLRFa | – | – | – | Group Profile (Ratio) [2, 8]: 1.00 : 0.65
